Among the data in PubChem BioAssay AID2685 (National Center for Advancing Translational Sciences (NCATS), 2010) are cell number change and AC50 values, retold here.

This experiment can be described thus: qHTS Assay for Lipid Storage Modulators in Drosophila S3 Cells.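 For cell number change: cells counted by Cell Tracker Red CMTPX staining in the red channel.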 Conditions: BODIPY lipid droplet fluorescence, 18-24 h; for cell number change: measured here: cell count max response, cells fed with added oleic acid. The method, boiled down:
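Laser-scanning cytometry quantifies lipid droplet accumulation (500–530 nm total intensity; droplet/cell object ratio) in oleic acid-fed (400 uM added) Drosophila S3 cells treated with a concentration series. 20 uM Triacsin C defined 100% inhibition.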
In general terms: qHTS replaces the single test concentration by a dilution series.

The mark [1] stands for this setting: measured here: cell number channel AC50, cells fed with added oleic acid.
Setting [2] is: measured here: lipid fluorescence (Fed channel) AC50, cells fed with added oleic acid.

SMILES strings stand for the structures. This is one part of the list. Further columns of the screen follow, without active or inactive calls. Most of these compounds were active or inconclusive in the main read-out, so they are no random draw. Words in brackets tell the shape of the fitted curve; partial curves, single points and poor fits give uncertain potencies.

On to `Cc1ccc(NS(=O)(=O)c2cc(Br)cnc2N)c(Cl)c1`, for which the cell number change stood at 1.53%.

Turning to `Cc1ccc2c(C(=O)CN3CC(C)CC(C)C3)c(C)[nH]c2c1` (stereo not given), the cell number change was -11.7%. The AC50 under setting [1] was 0.00517 µM [falling, full curve, poor fit].

In the case of `Cc1cc(C)c2c(=O)[nH]c(SCc3ccccc3)nc2n1`, the cell number change is -9.22%.

For `CCC(CC)C1C(C#N)=C(N)Oc2n[nH]c(-c3ccccc3)c21` (stereo not given), the cell number change is -42.3%. Also, the concentration at half-maximal activity (AC50) under setting [1] is 2.91 µM [falling, partial curve].

`Nc1nc(N)nc(-c2ccc(Oc3ccccc3)cc2)n1`: the cell number change came to 99.7%. The half-maximal activity concentration (AC50) under setting [1] is 20.6 µM [rising, single point].

Turning to `Cc1cccn2cc(CCNS(=O)(=O)c3ccc([N+](=O)[O-])cc3)nc12`, the cell number change was -3.45%. Also, under setting [2], the AC50 is 29.1 µM [rising, single point].

On to `Cc1cc(C(=O)N2CCN(C(=O)c3ccco3)CC2)ccc1[N+](=O)[O-]`, for which the cell number change was -36.5%.

Regarding `CCc1noc(C)c1C(=O)N1CCCC(N2CCN(c3ccccc3F)CC2)C1` (stereo not given), the cell number change is 43.1%. Also, under setting [2], the concentration at half-maximal activity (AC50) was 23.1 µM [rising, partial curve].

Consider `CC(OC(=O)c1c[nH]c2ccccc12)C(=O)N1CCCC1` (stereo not given), for which the cell number change stood at 13.8%.

For the compound `Cc1ccc2oc(C(=O)N(Cc3ccccc3)C3CCS(=O)(=O)C3)c(C)c2c1` (stereo not given), the cell number change was -12.7%. Moreover, under setting [2], the AC50 is 29.1 µM [falling, single point].

For the compound `CC1=C(C(N)=O)C(c2ccc(Cl)cc2Cl)n2ncnc2N1` (stereo not given), the AC50 under setting [1] is 0.58 µM [rising, full curve, poor fit].

Regarding `CCOC(=O)C1CCN(C(=O)c2cccnc2Cl)CC1`, the cell number change was -29.1%.

Turning to `CCc1ccc(/C=C2\C(=N)N3N=C(CC(=O)N4CCCCC4)SC3=NC2=O)cc1`, the cell number change worked out at 20.8%. In addition, under setting [2], the AC50 is 0.146 µM [rising, single point].

Take `Cc1ccc2[nH]c(=O)c(C(c3nnnn3Cc3ccccc3)N3CCc4ccccc43)cc2c1` (stereo not given): the AC50 by setting is: under setting [1], 2.59 µM [rising, partial curve]; under setting [2], 2.06 µM [rising, partial curve].

For the compound `COCC(C)NC(=O)c1nn(Cc2ccccc2)c(=O)c2ccccc12` (stereo not given), the cell number change came to 11.4%.

Turning to `COc1ccc(CCNC(=O)/C=C/c2ccco2)cc1`, the cell number change was found to be 3.51%.

With `CCN(CC)CCCN1C(=O)CSC1c1ccc([N+](=O)[O-])cc1` (stereo not given), the cell number change stood at 0.125%. Also, the half-maximal activity concentration (AC50) under setting [2] is 20.6 µM [rising, single point].

As to `O=C(COc1ccccc1[N+](=O)[O-])NCC1(N2CCCCC2)CCCCC1`, the cell number change is -6.12%. For the same compound, under setting [1], the AC50 is 0.0058 µM [falling, full curve, poor fit]. Moreover, under setting [2], the AC50 was 3.66 µM [falling, single point].

For the compound `CC(C)(C)C(=O)Nc1nnc(SCc2cccc(F)c2)s1`, the cell number change was -13.5%.

As to `COc1cccc(C(=O)N(Cc2cc3cc(C)ccc3[nH]c2=O)C(C)C)c1`, the cell number change is -7.34%.

Regarding `CCCCOC(=O)C1=C(C)Nc2ncnn2C1c1cccc(OC)c1OC` (stereo not given), the AC50 reads like this: under setting [1], 6.51 µM [rising, single point]; under setting [2], 3.26 µM [rising, single point].

As for `O=C(COc1ncnc2ccccc12)N1CCN(C(=O)c2ccco2)CC1`, the cell number change came out at 2.66%.

As for `O=C(C[N+]1(CC#Cc2ccccc2)CCCCC1)c1ccc(Cl)cc1`, the cell number change is -4.64%.

Consider `COC(=O)[C@H](Cc1ccccc1)N(C)S(=O)(=O)c1cccc(S(=O)(=O)N(C)[C@@H](Cc2ccccc2)C(=O)OC)c1`, for which the cell number change was 93.5%. Also, the AC50 under setting [1] was 20.6 µM [rising, single point]. Under setting [2], the AC50 is 29.1 µM [rising, single point].

`O=C(C1=C(O)C(=O)N(Cc2cccnc2)C1c1ccccn1)c1cccs1` (stereo not given): the cell number change is -17.2%. Under setting [2], the half-maximal activity concentration (AC50) was 20.6 µM [falling, single point].

Turning to `COC(=O)Cn1c(Cc2ccccc2)nc2ccccc21`, the cell number change amounted to 25.9%.

Regarding `Cc1cc(N2CCN(c3ccccc3)CC2)n2ncnc2n1`, the cell number change came to 8.33%. Further, the AC50 under setting [2] was 0.0517 µM [rising, full curve, poor fit].

In the case of `COc1cc2c(cc1OC)CN(CC(=O)Nc1ccc(S(=O)(=O)N3CCCC3)cc1)CC2`, the cell number change is 28%. Besides, the AC50 under setting [1] was 3.66 µM [rising, partial curve, poor fit]. For the same compound, under setting [2], the AC50 was 29.1 µM [rising, single point].

Consider `O=C(NCCN1CCOCC1)C1CCC(=O)N1Cc1ccccc1Cl` (stereo not given), for which the cell number change was -34.6%. Further, under setting [1], the half-maximal activity concentration (AC50) is 16.4 µM [falling, single point]. Under setting [2], the half-maximal activity concentration (AC50) was 29.1 µM [falling, single point].

For the compound `CSc1ncc(Cl)c(C(=O)NCc2cccnc2)n1`, the cell number change came to 18.4%. In addition, under setting [2], the half-maximal activity concentration (AC50) is 0.58 µM [rising, single point].

Turning to `N#Cc1cc2c(nc1SCC(=O)N1CCCCC1)CCCCC2`, the cell number change amounted to 2.99%. The AC50 under setting [2] was 0.651 µM [rising, single point].

Regarding `COc1ccccc1C1CCN(C(=O)c2ccc(C(C)(C)C)cc2)CC1`, the cell number change is -30.7%. Further, the AC50 under setting [1] is 29.1 µM [falling, single point]. Under setting [2], the AC50 was 29.1 µM [falling, single point].

Consider `COCCn1nnnc1C(CC(C)C)N1CCN(C(=O)c2ccco2)CC1` (stereo not given), for which the cell number change is -1.89%. In addition, the AC50 under setting [2] is 3.66 µM [falling, single point].

Turning to `Nc1nonc1-n1nnc(C(=O)N/N=C/c2ccco2)c1-c1ccccc1`, the cell number change was -3.17%. Under setting [2], the half-maximal activity concentration (AC50) was 29.1 µM [rising, single point].

Regarding `O=C1[C@H]2[C@@H](C(=O)N1c1cccc3ccccc13)C1(C(=O)c3ccccc3C1=O)N1CCC[C@@H]21`, the cell number change is -9.66%. In addition, the half-maximal activity concentration (AC50) under setting [2] was 0.0291 µM [rising, full curve, poor fit].

For `S=C(NCc1ccco1)Nc1ccc(Br)cc1Cl`, the cell number change is 76.3%. For the same compound, under setting [1], the AC50 is 23.1 µM [rising, single point].

Regarding `c1ccc(Oc2cc(-n3cncn3)ncn2)cc1`, the cell number change came to 21.3%. Besides, the half-maximal activity concentration (AC50) under setting [2] was 20.6 µM [rising, single point].

With `O=S(=O)(Nc1cccnc1)c1ccc(Cl)c(C(F)(F)F)c1`, the cell number change was -2.36%. Moreover, under setting [2], the AC50 is 29.1 µM [rising, single point].

As to `O=C(C1CCN(Cc2ccc(Cl)cc2)CC1)N1CCN(Cc2ccc3c(c2)OCO3)CC1`, the cell number change stood at 6.07%. Further, the AC50 under setting [1] was 0.00517 µM [rising, full curve, poor fit]. For the same compound, the AC50 under setting [2] is 0.00461 µM [rising, full curve, poor fit].

For `Cc1ccc(C(C(=O)NCc2ccccc2)N(C(=O)c2ccccn2)c2ccccc2)o1` (stereo not given), the cell number change was 2.56%.

For the compound `COc1ccccc1N(CC(=O)N1CCCCCC1)S(C)(=O)=O`, the cell number change was -11.7%.

Consider `COc1ccc(CNC(=O)C2CSC(c3ccc(OC)cc3)N2C(C)=O)cc1` (stereo not given), for which the AC50 is 0.116 µM [falling, full curve, poor fit] under setting [1] and 0.58 µM [falling, single point] under setting [2].

The AC50 is the midpoint of the concentration-response curve, whichever way the signal moves.
